{"source": "the supplement of paper PMC8728848", "binders": {"B1": {"name": "Aap lectin (Staphylococcus epidermidis) (protein)", "chain": "VNLNYSSPFMSLLSMPADSSSNNTKNTIDIPPTTVKGRDNYDFYGRVDIESNPTDLNATNLTRYNYGQPPGTTTAGAVQFKNQVSFDKDFDFNIRVANNRQSNTTGADGWGFMFSKKDGDDFLKNGGILREKGTPSAAGFRIDTGYYNNDPLDKIQKQAGQGYRGYGTFVKNDSQGNTSKVGSGTPSTDFLNYADNTTNDLDGKFHGQKLNNVNLKYNASNQTFTATYAGKTWTATLSELGLSPTDSYNFLVTSS"}}, "assay_in_all_cases": "glycan array binding signal (z-score within array); higher = stronger binding", "details_in_all_cases": "glycan notation: IUPAC condensed, linker removed", "key": {"[1]": {"biological_target": "Gal(b1-4)GlcNAc(b1-2)Man(a1-3)[Gal(b1-4)GlcNAc(b1-2)Man(a1-6)]Man(b1-4)GlcNAc(b1-4)[Fuc(a1-6)]GlcNAc", "how_it_was_run": "(§1)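 The binding signal is a Z-score computed within each array and averaged over linkers. Arrays of the same protein sequence at different concentrations or buffers were also averaged together. Data originate from 3228 arrays in the Consortium for Functional Glycomics database, kept only where the protein sequence was available.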"}, "[2]": {"biological_target": "Gal(b1-4)GlcNAc(b1-2)Man(a1-3)[Gal(b1-4)GlcNAc(b1-2)Man(a1-6)][Gal(b1-4)GlcNAc(b1-4)]Man(b1-4)GlcNAc(b1-4)[Fuc(a1-6)]GlcNAc", "how_it_was_run": "as §1"}, "[3]": {"biological_target": "Gal(b1-4)GlcNAc(b1-2)Man(a1-3)[Gal(b1-4)GlcNAc(b1-2)Man(a1-6)][GlcNAc(b1-4)]Man(b1-4)GlcNAc(b1-4)[Fuc(a1-6)]GlcNAc", "how_it_was_run": "as §1"}, "[4]": {"biological_target": "Gal(b1-4)GlcNAc(b1-2)Man(a1-3)[GlcNAc(b1-2)Man(a1-6)]Man(b1-4)GlcNAc(b1-4)GlcNAc", "how_it_was_run": "as §1"}, "[5]": {"biological_target": "Gal(b1-4)GlcNAc(b1-2)Man(a1-3)[GlcNAc(b1-4)][Gal(b1-4)GlcNAc(b1-2)Man(a1-6)]Man(b1-4)GlcNAc(b1-4)GlcNAc", "how_it_was_run": "as §1"}, "[6]": {"biological_target": "Gal(b1-4)GlcNAc(b1-2)Man(a1-3)[Man(a1-6)]Man(b1-4)GlcNAc(b1-4)GlcNAc", "how_it_was_run": "as §1"}, "[7]": {"biological_target": "Gal(b1-4)GlcNAc(b1-2)Man(a1-6)Man(b1-4)GlcNAc(b1-4)GlcNAc", "how_it_was_run": "as §1"}, "[8]": {"biological_target": "Gal(b1-4)GlcNAc(b1-2)Man(a1-6)[GlcNAc(b1-2)Man(a1-3)]Man(b1-4)GlcNAc(b1-4)GlcNAc", "how_it_was_run": "as §1"}, "[9]": {"biological_target": "Gal(b1-4)GlcNAc(b1-2)Man(a1-6)[Man(a1-3)]Man(b1-4)GlcNAc(b1-4)GlcNAc", "how_it_was_run": "as §1"}, "[10]": {"biological_target": "Gal(b1-4)GlcNAc(b1-2)[Gal(b1-4)GlcNAc(b1-4)]Man(a1-3)[Gal(b1-4)GlcNAc(b1-2)Man(a1-6)]Man(b1-4)GlcNAc(b1-4)GlcNAc", "how_it_was_run": "as §1"}, "[11]": {"biological_target": "Gal(b1-4)GlcNAc(b1-2)[Gal(b1-4)GlcNAc(b1-4)]Man(a1-3)[Gal(b1-4)GlcNAc(b1-2)[Gal(b1-4)GlcNAc(b1-6)]Man(a1-6)]Man(b1-4)GlcNAc(b1-4)GlcNAc", "how_it_was_run": "as §1"}, "[12]": {"biological_target": "Gal(b1-4)GlcNAc(b1-2)[Gal(b1-4)GlcNAc(b1-4)]Man(a1-3)[GlcNAc(b1-4)][Gal(b1-4)GlcNAc(b1-2)Man(a1-6)]Man(b1-4)GlcNAc(b1-4)GlcNAc", "how_it_was_run": "as §1"}, "[13]": {"biological_target": "Gal(b1-4)GlcNAc(b1-2)[Gal(b1-4)GlcNAc(b1-4)]Man(a1-3)[GlcNAc(b1-4)][Gal(b1-4)GlcNAc(b1-2)[Gal(b1-4)GlcNAc(b1-6)]Man(a1-6)]Man(b1-4)GlcNAc(b1-4)GlcNAc", "how_it_was_run": "as §1"}, "[14]": {"biological_target": "Gal(b1-4)GlcNAc(b1-2)[Gal(b1-4)GlcNAc(b1-6)]Man(a1-6)[Gal(b1-4)GlcNAc(b1-2)Man(a1-3)]Man(b1-4)GlcNAc(b1-4)GlcNAc", "how_it_was_run": "as §1"}, "[15]": {"biological_target": "Gal(b1-4)GlcNAc(b1-2)[Gal(b1-4)GlcNAc(b1-6)]Man(a1-6)[Gal(b1-4)GlcNAc(b1-2)Man(a1-3)]Man(b1-4)GlcNAc(b1-4)[Fuc(a1-6)]GlcNAc", "how_it_was_run": "as §1"}, "[16]": {"biological_target": "Gal(b1-4)GlcNAc(b1-2)[Gal(b1-4)GlcNAc(b1-6)]Man(a1-6)[GlcNAc(b1-4)][Gal(b1-4)GlcNAc(b1-2)Man(a1-3)]Man(b1-4)GlcNAc(b1-4)GlcNAc", "how_it_was_run": "as §1"}, "[17]": {"biological_target": "Gal(b1-4)GlcNAc(b1-2)[Gal(b1-4)GlcNAc(b1-6)]Man(a1-6)[GlcNAc(b1-4)][Gal(b1-4)GlcNAc(b1-2)[Gal(b1-4)GlcNAc(b1-4)]Man(a1-3)]Man(b1-4)GlcNAc(b1-4)[Fuc(a1-6)]GlcNAc", "how_it_was_run": "as §1"}, "[18]": {"biological_target": "Gal(b1-4)GlcNAc(b1-3)Gal(b1-3)GalNAc", "how_it_was_run": "as §1"}, "[19]": {"biological_target": "Gal(b1-4)GlcNAc(b1-3)Gal(b1-3)GlcNAc", "how_it_was_run": "as §1"}}, "note": "This is one part of the list."}
{"binder": "B1", "values": [{"measurement": "glycan array binding signal (z-score)", "setting": "[1]", "value": -0.322}, {"measurement": "glycan array binding signal (z-score)", "setting": "[2]", "value": -0.996}, {"measurement": "glycan array binding signal (z-score)", "setting": "[3]", "value": 0.361}, {"measurement": "glycan array binding signal (z-score)", "setting": "[4]", "value": -0.746}, {"measurement": "glycan array binding signal (z-score)", "setting": "[5]", "value": 1.94}, {"measurement": "glycan array binding signal (z-score)", "setting": "[6]", "value": 0.805}, {"measurement": "glycan array binding signal (z-score)", "setting": "[7]", "value": -0.684}, {"measurement": "glycan array binding signal (z-score)", "setting": "[8]", "value": -0.656}, {"measurement": "glycan array binding signal (z-score)", "setting": "[9]", "value": 2.29}, {"measurement": "glycan array binding signal (z-score)", "setting": "[10]", "value": 0.283}, {"measurement": "glycan array binding signal (z-score)", "setting": "[11]", "value": -0.447}, {"measurement": "glycan array binding signal (z-score)", "setting": "[12]", "value": 0.627}, {"measurement": "glycan array binding signal (z-score)", "setting": "[13]", "value": -0.249}, {"measurement": "glycan array binding signal (z-score)", "setting": "[14]", "value": -0.293}, {"measurement": "glycan array binding signal (z-score)", "setting": "[15]", "value": 1.62}, {"measurement": "glycan array binding signal (z-score)", "setting": "[16]", "value": -0.475}, {"measurement": "glycan array binding signal (z-score)", "setting": "[17]", "value": -0.641}, {"measurement": "glycan array binding signal (z-score)", "setting": "[18]", "value": 0.095}, {"measurement": "glycan array binding signal (z-score)", "setting": "[19]", "value": 0.268}]}
